Reference: PubChem BioAssay AID540276 (National Center for Advancing Translational Sciences (NCATS), 2011)
The whole screen tested about 300,000 compounds, of which about 5,400 (1.8%) were called active. Inconclusive means that the source gave no clear call. Such entries were picked first, then a sample of the others. The call rests on the fitted dose curve; tested in HEK293 cells. A potency beside an inconclusive call is a rough fit, not a confirmed value.

Experiment: qHTS for inhibitors of binding or entry into cells for Marburg Virus
Settings: Marburg virus pseudotyped entry inhibition, cell reporter; activity change, negative = inhibition: at 37.8 µM (top of the series) unless noted
On the % scale 0 is the no-effect control and ±100 the full control effect; potency means the concentration at half of the fitted maximal effect.

Compound | Potency | activity change, negative = inhibition
CCN(CC)c1ccc(N=Nc2nn(C)c(C)c2[N+](=O)[O-])cc1 | inconclusive: 1.46 µM [activator, partial curve, poor fit] | 
O=C1C=C(c2cccs2)C[C@H](c2ccccc2)[C@H]1n1nnc([N+](=O)[O-])n1 | active: 1.26 µM | 
COc1ccc(CNC(=O)c2cnn(-c3ccccc3)c2-n2cccc2)cc1OC |  | inactive: -26.9% [at 46.1 µM]
COc1ccc(Cn2c(C3CC3)nc3ccc(NC(=O)c4ccco4)cc3c2=O)cc1 | inconclusive: 35.5 µM [inhibitor, single point] | 
CNC(C(=O)c1ccccc1)C(OC)c1ccc(C)cc1 (stereo not drawn) |  | inactive: 0.782%
Cn1c(NC[C@@H](O)c2ccccc2)nc2c1c(=O)n(Cc1ccc(Cl)c(Cl)c1)c(=O)n2C | inconclusive: 8.91 µM [inhibitor, partial curve, poor fit] | 
O=C(Nc1ccc(-c2csc(-c3ccccc3)n2)cc1)c1ccccc1Cl | inconclusive: 29.1 µM [inhibitor, single point] | 
Cc1cccc2cc(CN(C(=O)c3cnccn3)C3CCCCC3)c(Cl)nc12 | inconclusive: 29.1 µM [inhibitor, single point] | 
COC(=O)c1ccc(NC(=O)CSc2nnnn2C2CCCCC2)cc1 |  | inactive: -11.2%
CC1N(C)c2cc(NC(=O)c3ccco3)ccc2C1(C)C (stereo not drawn) | inconclusive: 1.3 µM [activator, partial curve, poor fit] | 
CNC(=S)Nc1ccc(C23CC4CC(CC(C4)C2)C3)cc1 | inconclusive: 35.5 µM [inhibitor, single point] | 
O=C(COc1ccc(CO)cc1Cl)Nc1ccc(F)cc1 | active: 6.51 µM | 
O=C(COc1ccccc1)c1cn(CC(=O)N2CCOCC2)c2ccccc12 |  | inactive: -13.2%
COc1ccc(C(=O)OC2C(OC)OCC(O)C2O)cc1 (stereo not drawn) |  | inactive: 11.7% [at 46.1 µM]
O=C(CN1C(=O)NC2(CCCC2)C1=O)Nc1cc(C(F)(F)F)ccc1N1CCCCC1 | inconclusive: 8.91 µM [inhibitor, partial curve, poor fit] | 
CCOc1ccc(NC(=S)N(Cc2ccc(N(C)C)cc2)Cc2ccco2)cc1 |  | inactive: -15.7%
COc1ccc(OC)c(CN2CCSCC2)c1 | inconclusive: 1 µM [inhibitor, partial curve, poor fit] | 
COc1cc2c(cc1OC)C(c1ccc(Br)cc1)NCC2 (stereo not drawn) | inconclusive: 11.2 µM [inhibitor, partial curve, poor fit] | 
CCOC(=O)c1c(NC(=O)C2CCCCC2C(=O)O)sc2c1CCCCC2 (stereo not drawn) |  | inactive: -8.91% [at 46.1 µM]
O=[N+]([O-])c1ccc(CN2C=NS(=O)(=O)c3ccccc32)cc1 |  | inactive: -4.14% [at 46.1 µM]
Cc1c(Cl)cccc1-n1c(SCC(=O)N(C)Cc2ccccc2)nnc1-c1ccncc1 | inconclusive: 1.3 µM [inhibitor, partial curve, poor fit] | 
CCOc1ccc(NC(=O)CSc2nc(O)c(C)c(=O)n2-c2ccc(F)cc2)cc1 | inconclusive: 31.6 µM [activator, single point] | 

Complete entries, quoted from the list:
Cc1cccc2cc(CN(C(=O)c3cnccn3)C3CCCCC3)c(Cl)nc12 as listed: Potency: inconclusive: 29.1 µM [inhibitor, single point]
COC(=O)c1ccc(NC(=O)CSc2nnnn2C2CCCCC2)cc1 as listed: activity change, negative = inhibition: inactive: -11.2%

More compounds follow:

Compound | Potency | activity change, negative = inhibition
COc1nc(Nc2ccc(-c3nc4ccccc4o3)cc2)nc(N2CCOCC2)n1 | inconclusive: 15.8 µM [inhibitor, single point] | 
COc1cc2c(cc1NC(=O)COc1ccc(Br)cc1)oc1ccccc12 |  | inconclusive: 9.31% [activator] [at 46.1 µM]
Cc1ccc(-c2nc3c(c(=O)[nH]c(=O)n3CC(C)C)n2CC(C)C)cc1[N+](=O)[O-] | inconclusive: 35.5 µM [inhibitor, single point] | 
CC1CCN(C(=O)COC(=O)c2n[nH]c3ccccc23)CC1 | inconclusive: 1.12 µM [activator, partial curve, poor fit] | 
CCOC(=O)C1=C(C)n2c(s/c(=C/c3cccc([N+](=O)[O-])c3)c2=O)=NC1c1ccc(O)c(OC)c1 (stereo not drawn) | inconclusive: 29.1 µM [inhibitor, single point] | 
COc1ccc(/C=C/C(=O)Nc2cccc(F)c2)cc1S(=O)(=O)N1CCOCC1 | inconclusive: 11.2 µM [inhibitor, partial curve, poor fit] | 
Cc1ccc(N(Cc2ccccc2)C(=O)c2cc(S(=O)(=O)N3CCOCC3)ccc2C)cc1 | inconclusive: 10 µM [inhibitor, single point] | 
O=C(NC1CCCC1)c1ccccc1OCc1ccccc1 |  | inactive: -25.9%
O=S1(=O)c2c(F)cccc2OC(COCc2ccccc2)CN1C1CCCC1 (stereo not drawn) | inconclusive: 11.2 µM [inhibitor, full curve, poor fit] | 
CCOC(=O)C1CN(S(=O)(=O)c2ccc(C)cc2)c2ccccc2O1 (stereo not drawn) | inconclusive: 35.5 µM [inhibitor, single point] | 
Cc1c(NC(=O)c2ccc(S(=O)(=O)N(C)c3ccccc3)cc2)c(=O)n(-c2ccccc2)n1C | inconclusive: 1.58 µM [activator, partial curve, poor fit] | 
COc1ccc(S(=O)(=O)N2CCCC(C(=O)NCc3ccccn3)C2)cc1 (stereo not drawn) |  | inactive: -2.97%
Cc1ccccc1CSCC(=O)NCCSc1ccccn1 |  | inactive: 11.5% [at 46.1 µM]
COc1cccc(-n2c(CN3CCN(c4ccccc4)CC3)nc3ccc([N+](=O)[O-])cc3c2=O)c1 | inconclusive: 7.31 µM [inhibitor, partial curve, poor fit] | 
CCOc1ccc(CN2C(=O)C(=O)c3cccc(C)c32)cc1OC | inconclusive: 14.1 µM [inhibitor, single point] | 
COc1nnc(-c2ccc(C)c(S(=O)(=O)NCC3CCCO3)c2)c2ccccc12 (stereo not drawn) |  | inactive: 2.73% [at 46.1 µM]
CCNC(=O)c1cc(Cl)ccc1OC | inconclusive: 0.126 µM [inhibitor, full curve, poor fit] | 
O=C(NCc1ccco1)c1ccc(Cl)c(S(=O)(=O)N2CCOCC2)c1 |  | inactive: 17.5%
CCN(CC)c1ccc(N=C2C(=O)Nc3ccccc32)cc1 | inconclusive: 12.6 µM [inhibitor, single point] | 
CC(NC(=O)c1cccc(S(=O)(=O)N2CCN(C)CC2)c1)c1ccc(Cl)cc1Cl (stereo not drawn) | inconclusive: 12.6 µM [inhibitor, single point] | 
Cc1ccc(Nc2nc(N)nc(CSc3nc(C)cc(C)n3)n2)cc1 | inconclusive: 0.562 µM [inhibitor, full curve, poor fit] | 
